# Reference: patent US20240279321A1 (THERINI BIO, published 2024)
# No constants are given. Whether binding was seen depends on the method and setting. Some entries that bind do so weakly or less than the wild type. Where no end group is shown, it is not given here. The star is where a group is joined. Biotin = O=C1N[C@H]2[C@H](CS[C@H]2CCCCC(=O)*)N1
# T1: Mouse P2 peptide (mouse)
# T1 sequence (peptide): YSMKETTMKIIPFNRLSIG
# Target: T1, Mouse P2 peptide (mouse)
# Assay: ELISA
row,binding,Binder
1,binds,"Fab of antibody clone 60143 (ADI-60143 Fab) (Fab, V domains shown, The crystal model holds chain H residues 1-127 and 134-214 and chain L residues 1-213; not shown: The papain cleavage limit is not stat) VH: QVQLVQSGAEVKKPGASVKVSCKASGYTFTSTWIHWVRQAPGQGLEWIGLIDPSDSYTNYNQKFRGRATLTVDTSTSTAYMELSSLRSEDTAVYYCASSKPTGGWGQGTTVTVSS VL: DIVMTQSPLSLPVTPGEPASISCRSSKSLLHSSGITYLSWYLQKPGQSPQLLIYQMSNLASGVPDRFSGSGSGTDFTLKISRVEAEDVGVYYCAQNLELPLTFGGGTKVEIKR"
2,binds,"antibody clone 60143 (full length ADI-60143 IgG) (antibody, V domains shown) VH: QVQLVQSGAEVKKPGASVKVSCKASGYTFTSTWIHWVRQAPGQGLEWIGLIDPSDSYTNYNQKFRGRATLTVDTSTSTAYMELSSLRSEDTAVYYCASSKPTGGWGQGTTVTVSS VL: DIVMTQSPLSLPVTPGEPASISCRSSKSLLHSSGITYLSWYLQKPGQSPQLLIYQMSNLASGVPDRFSGSGSGTDFTLKISRVEAEDVGVYYCAQNLELPLTFGGGTKVEIKR"
